From ChEMBL document CHEMBL3988442, “University of Dundee, Small-Polar-MMV Screening Library” (2021).

Results are given as percent effect.
The record does not define 0% and 100%; most values in the screen are far below 50% and negative numbers occur (in some assays of this library far below -100).
This is an unselected part of the compounds tested.
A dash means the value is not listed here; it may have been measured.

A: 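Whole-cell assay for inhibitors of Mycobacterium tuberculosis growth, labelled Cornell in the record; the read-out is not stated. The concentration is filed as 10 mM, unlikely as a test dose, so the dose is not known. Higher means stronger inhibition (inferred from two other growth screens of the library). Of about 53,000 compounds tested this way, about 900 (1.7%) reached 50% or more in at least one test.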
B: 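Assay on Mycobacterium tuberculosis, filed only as a heat shock assay from Cornell; the read-out is not stated. The concentration is filed as 10 mM, unlikely as a test dose, so the dose is not known. Direction is inferred from retests: higher values go with stronger inhibition. Of about 69,000 compounds tested this way, about 930 (1.4%) reached 50% or more in at least one test.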

For COc1cccc(S(=O)(=O)N2CCCCC2CCN2CCOCC2)c1 (stereo unspecified) the result was A: -10.18%; B: -28.45%.
For CC(C)NC(=O)Nc1ccc(CS(C)(=O)=O)cc1 the result was B: -31.01%.
For CCN(CC)S(=O)(=O)NCC1Cc2ccccc2O1 (stereo unspecified) the result was A: 4.301%; B: -16.12%.
For CN(C)C(=O)CN(C)C(=O)c1cccn1CCc1ccccc1 the result was B: -3.273%.
For NCC1CCC2(CCN(C(=O)c3ccccn3)CC2)CO1.O=C(O)C(F)(F)F.O=C(O)C(F)(F)F (stereo unspecified) the result was A: -2.402%; B: 3.829%.
For Cc1cccc(C(C)CNC(=O)N2CCC3(C2)OCCO3)c1 (stereo unspecified) the result was A: -4.551%; B: -6.554%.
For Cc1csc(C2CCCN(C(=O)Cn3ccccc3=O)C2)n1 (stereo unspecified) the result was B: -17.05%.
For CC(C)OC(=O)N1CCC(Cc2cccc(C(N)=O)c2)C1 (stereo unspecified) the result was A: -2.503%; B: -5.946%.
For NC(=O)c1noc(Cn2ccc3ccccc3c2=O)n1 the result was A: -6.018%; B: 7.79%.
For c1cncc(CNc2ccccc2-c2nn[nH]n2)c1 the result was A: 72.98%; B: -4.054%.
For CC(C)Cc1ncc2c(n1)CN(c1nccc(NC(C)C)n1)C2 the result was A: 24.3%; B: 83.11%.
For Cc1ccc2c(n1)N(CCN(C)C)CCN(C(=O)N1CCOCC1)C2 the result was A: 25.85%; B: 3.074%.
For O=C(CCc1cccc(Cl)c1)NS(=O)(=O)Cc1ccon1 the result was A: -6.351%; B: -21.23%.
For Cc1ccc(NC(=O)NC(C)c2nc[nH]n2)s1 (stereo unspecified) the result was A: 23.46%; B: 3.073%.
For CC(=O)N1CCC(C(=O)Nc2nnc(C(F)(F)F)[nH]2)CC1 the result was A: -1.82%; B: -6.588%.
For CCc1ccccc1N1CC(c2nnc(N)s2)CC1=O (stereo unspecified) the result was A: -19.63%; B: 6.438%.
For Cc1cc(C(=O)N2CCCC(c3cc(C(F)(F)F)[nH]n3)C2)[nH]n1 (stereo unspecified) the result was B: -8.02%.
For Cc1nccn1C1CCCN(C(=O)COCC2CC2)C1 (stereo unspecified) the result was B: -13.37%.
For CCc1nc(CCNC(=O)Nc2cc(C(N)=O)ccc2OC)cs1 the result was A: -13.28%; B: -27.01%.
For CCN(CC)C(=O)Cn1cc(C(=O)NCCc2scnc2C)nn1 the result was A: 16.53%; B: 18.47%.
For CCC(C)c1noc(C2CCN(C(=O)Cn3nc(C)cc3C)CC2)n1 (stereo unspecified) the result was B: -17.35%.
For COc1cccc(CN2CCN(c3noc(C(C)C)n3)CC2)c1F the result was A: 42.13%; B: -3.55%.
For N#Cc1ccccc1CN1CCc2sccc2C1 the result was B: -25.19%.
For [H][C@]12CC[C@]([H])(CN(C(=O)c3cccnc3)C1)N(Cc1cc(F)ccc1F)C2 the result was A: -11.73%; B: 6.999%.
For CC1CCCN(C(=O)c2occc2COc2cccc(C#N)c2)C1 (stereo unspecified) the result was A: 1.751%; B: 1.823%.
For CN(C)C(=O)Cc1nc(CN2CCCC2Cn2cccn2)cs1 (stereo unspecified) the result was A: -3.593%; B: -3.116%.
For CC(C)c1n[nH]c(C(=O)NC(C)c2ccncc2)c1Br (stereo unspecified) the result was A: 19.49%; B: -18.58%.
For CNC(=O)c1cccc(CC2COCCN(Cc3ccc(C)o3)C2)n1 (stereo unspecified) the result was A: 0.6767%; B: 35.04%.
For CC1CCC(NS(=O)(=O)CC(=O)Nc2ccccc2N2CCCC2)CC1 (stereo unspecified) the result was A: 81.68%; B: -15.1%.
For O=C(O)C(F)(F)F.O=S(=O)(NCC1COCc2c(-c3ccncc3)nnn2C1)C1CC1 (stereo unspecified) the result was A: 13.64%; B: -30.02%.
For Cc1ccnc(NC(=O)c2c(C)oc(C)c2C)c1 the result was A: -63.41%; B: -27.44%.
For N[C@H]1CCCN(S(=O)(=O)c2ccc(C(=O)NCC(F)F)cc2)C1 the result was B: 1.721%.

Repeated from the top, 2 entries:

structure	A	B
COc1cccc(S(=O)(=O)N2CCCCC2CCN2CCOCC2)c1 (stereo unspecified)	-10.18%	-28.45%
CC(C)NC(=O)Nc1ccc(CS(C)(=O)=O)cc1	-	-31.01%